Article PMC8292372
No constants are given. Whether binding was seen depends on the method and setting. In cells and extracts the contact can be indirect. Some binding calls cover weakened binding; strength is not graded here.

Protein sequences, listed by entry. Tags and fused reporters are not part of them.
UniProt Q15672: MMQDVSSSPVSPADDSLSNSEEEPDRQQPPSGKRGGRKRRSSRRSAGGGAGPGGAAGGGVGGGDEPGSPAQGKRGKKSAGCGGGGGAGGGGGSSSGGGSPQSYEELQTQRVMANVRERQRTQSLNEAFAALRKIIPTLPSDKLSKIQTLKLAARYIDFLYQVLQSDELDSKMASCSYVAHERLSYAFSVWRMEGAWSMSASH
UniProt Q8N1E6: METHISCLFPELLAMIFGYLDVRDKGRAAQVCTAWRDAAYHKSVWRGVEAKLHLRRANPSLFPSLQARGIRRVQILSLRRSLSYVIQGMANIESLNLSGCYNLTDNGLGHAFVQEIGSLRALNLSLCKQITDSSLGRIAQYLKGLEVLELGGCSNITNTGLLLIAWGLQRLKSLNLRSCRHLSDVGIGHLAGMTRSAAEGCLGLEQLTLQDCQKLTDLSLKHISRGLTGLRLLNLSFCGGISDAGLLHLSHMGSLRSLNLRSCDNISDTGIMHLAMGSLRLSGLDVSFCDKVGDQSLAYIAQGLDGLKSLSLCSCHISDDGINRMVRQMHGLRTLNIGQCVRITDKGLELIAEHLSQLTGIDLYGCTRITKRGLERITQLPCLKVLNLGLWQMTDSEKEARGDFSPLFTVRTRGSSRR

Tests used:
[1] = target: TWIST1 (UniProt Q15672); experiment: proximity ligation; in situ PLA in A549 and H1299 cells
[2] = target: TWIST1 (UniProt Q15672); experiment: co-IP; co-immunoprecipitation with Myc or HA antibody and western blot, HEK293T cells

## FBXL14 (from UniProt Q8N1E6 1-418)
[1]
  binding: binds
[2]
  binding: binds
